# From paper PMC12095548
# By UniProt entry, the sequences of proteins in these tests, tags left out.
# UniProt P42945: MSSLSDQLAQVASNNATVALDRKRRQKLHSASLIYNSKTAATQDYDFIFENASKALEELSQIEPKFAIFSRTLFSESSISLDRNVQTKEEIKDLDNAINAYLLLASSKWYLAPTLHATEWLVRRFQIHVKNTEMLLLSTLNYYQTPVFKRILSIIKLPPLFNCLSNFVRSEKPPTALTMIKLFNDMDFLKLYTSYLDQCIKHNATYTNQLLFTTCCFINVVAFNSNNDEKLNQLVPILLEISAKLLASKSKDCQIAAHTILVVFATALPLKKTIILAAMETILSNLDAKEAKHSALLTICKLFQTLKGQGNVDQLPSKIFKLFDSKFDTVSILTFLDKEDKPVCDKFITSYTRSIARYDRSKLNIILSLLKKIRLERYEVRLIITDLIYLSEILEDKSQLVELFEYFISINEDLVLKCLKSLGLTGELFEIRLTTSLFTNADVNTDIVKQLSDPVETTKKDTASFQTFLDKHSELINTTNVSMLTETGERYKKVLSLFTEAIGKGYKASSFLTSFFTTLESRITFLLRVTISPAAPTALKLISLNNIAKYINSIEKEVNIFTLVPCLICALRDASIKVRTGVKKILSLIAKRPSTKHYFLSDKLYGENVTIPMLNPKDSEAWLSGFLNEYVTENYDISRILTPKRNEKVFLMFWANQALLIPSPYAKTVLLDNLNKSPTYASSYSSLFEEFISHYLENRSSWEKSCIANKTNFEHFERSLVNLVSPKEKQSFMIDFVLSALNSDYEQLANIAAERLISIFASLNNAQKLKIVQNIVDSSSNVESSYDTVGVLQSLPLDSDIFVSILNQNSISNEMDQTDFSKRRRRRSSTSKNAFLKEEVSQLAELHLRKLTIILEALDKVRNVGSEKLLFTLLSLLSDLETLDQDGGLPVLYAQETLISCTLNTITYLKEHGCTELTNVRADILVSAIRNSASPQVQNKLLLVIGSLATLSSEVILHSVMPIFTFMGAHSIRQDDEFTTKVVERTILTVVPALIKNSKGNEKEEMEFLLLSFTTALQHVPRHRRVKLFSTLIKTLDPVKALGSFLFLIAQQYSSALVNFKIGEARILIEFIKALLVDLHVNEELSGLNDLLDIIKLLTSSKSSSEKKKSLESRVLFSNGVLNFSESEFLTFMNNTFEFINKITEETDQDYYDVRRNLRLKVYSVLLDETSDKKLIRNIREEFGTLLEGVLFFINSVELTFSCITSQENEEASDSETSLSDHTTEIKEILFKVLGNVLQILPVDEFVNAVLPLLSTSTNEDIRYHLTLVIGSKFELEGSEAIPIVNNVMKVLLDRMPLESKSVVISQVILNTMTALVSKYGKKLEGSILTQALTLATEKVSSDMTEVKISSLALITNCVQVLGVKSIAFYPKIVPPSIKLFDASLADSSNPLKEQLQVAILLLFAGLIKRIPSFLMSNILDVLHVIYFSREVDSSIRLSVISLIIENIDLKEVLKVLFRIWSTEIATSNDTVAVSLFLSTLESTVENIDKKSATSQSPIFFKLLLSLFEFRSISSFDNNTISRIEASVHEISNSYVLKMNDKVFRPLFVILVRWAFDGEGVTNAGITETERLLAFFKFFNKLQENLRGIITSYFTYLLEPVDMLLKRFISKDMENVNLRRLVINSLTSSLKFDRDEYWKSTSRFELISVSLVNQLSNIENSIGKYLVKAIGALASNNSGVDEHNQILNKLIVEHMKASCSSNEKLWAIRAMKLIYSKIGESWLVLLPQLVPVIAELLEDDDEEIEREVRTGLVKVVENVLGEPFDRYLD
# UniProt P25586: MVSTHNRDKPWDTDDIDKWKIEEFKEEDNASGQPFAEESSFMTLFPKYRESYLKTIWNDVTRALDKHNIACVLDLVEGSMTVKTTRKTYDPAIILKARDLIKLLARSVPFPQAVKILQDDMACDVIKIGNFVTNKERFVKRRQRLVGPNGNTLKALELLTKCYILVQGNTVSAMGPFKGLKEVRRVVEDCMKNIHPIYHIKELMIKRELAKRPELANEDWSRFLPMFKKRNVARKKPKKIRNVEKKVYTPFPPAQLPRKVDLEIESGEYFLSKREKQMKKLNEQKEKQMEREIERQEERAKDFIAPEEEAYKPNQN
# UniProt Q05022: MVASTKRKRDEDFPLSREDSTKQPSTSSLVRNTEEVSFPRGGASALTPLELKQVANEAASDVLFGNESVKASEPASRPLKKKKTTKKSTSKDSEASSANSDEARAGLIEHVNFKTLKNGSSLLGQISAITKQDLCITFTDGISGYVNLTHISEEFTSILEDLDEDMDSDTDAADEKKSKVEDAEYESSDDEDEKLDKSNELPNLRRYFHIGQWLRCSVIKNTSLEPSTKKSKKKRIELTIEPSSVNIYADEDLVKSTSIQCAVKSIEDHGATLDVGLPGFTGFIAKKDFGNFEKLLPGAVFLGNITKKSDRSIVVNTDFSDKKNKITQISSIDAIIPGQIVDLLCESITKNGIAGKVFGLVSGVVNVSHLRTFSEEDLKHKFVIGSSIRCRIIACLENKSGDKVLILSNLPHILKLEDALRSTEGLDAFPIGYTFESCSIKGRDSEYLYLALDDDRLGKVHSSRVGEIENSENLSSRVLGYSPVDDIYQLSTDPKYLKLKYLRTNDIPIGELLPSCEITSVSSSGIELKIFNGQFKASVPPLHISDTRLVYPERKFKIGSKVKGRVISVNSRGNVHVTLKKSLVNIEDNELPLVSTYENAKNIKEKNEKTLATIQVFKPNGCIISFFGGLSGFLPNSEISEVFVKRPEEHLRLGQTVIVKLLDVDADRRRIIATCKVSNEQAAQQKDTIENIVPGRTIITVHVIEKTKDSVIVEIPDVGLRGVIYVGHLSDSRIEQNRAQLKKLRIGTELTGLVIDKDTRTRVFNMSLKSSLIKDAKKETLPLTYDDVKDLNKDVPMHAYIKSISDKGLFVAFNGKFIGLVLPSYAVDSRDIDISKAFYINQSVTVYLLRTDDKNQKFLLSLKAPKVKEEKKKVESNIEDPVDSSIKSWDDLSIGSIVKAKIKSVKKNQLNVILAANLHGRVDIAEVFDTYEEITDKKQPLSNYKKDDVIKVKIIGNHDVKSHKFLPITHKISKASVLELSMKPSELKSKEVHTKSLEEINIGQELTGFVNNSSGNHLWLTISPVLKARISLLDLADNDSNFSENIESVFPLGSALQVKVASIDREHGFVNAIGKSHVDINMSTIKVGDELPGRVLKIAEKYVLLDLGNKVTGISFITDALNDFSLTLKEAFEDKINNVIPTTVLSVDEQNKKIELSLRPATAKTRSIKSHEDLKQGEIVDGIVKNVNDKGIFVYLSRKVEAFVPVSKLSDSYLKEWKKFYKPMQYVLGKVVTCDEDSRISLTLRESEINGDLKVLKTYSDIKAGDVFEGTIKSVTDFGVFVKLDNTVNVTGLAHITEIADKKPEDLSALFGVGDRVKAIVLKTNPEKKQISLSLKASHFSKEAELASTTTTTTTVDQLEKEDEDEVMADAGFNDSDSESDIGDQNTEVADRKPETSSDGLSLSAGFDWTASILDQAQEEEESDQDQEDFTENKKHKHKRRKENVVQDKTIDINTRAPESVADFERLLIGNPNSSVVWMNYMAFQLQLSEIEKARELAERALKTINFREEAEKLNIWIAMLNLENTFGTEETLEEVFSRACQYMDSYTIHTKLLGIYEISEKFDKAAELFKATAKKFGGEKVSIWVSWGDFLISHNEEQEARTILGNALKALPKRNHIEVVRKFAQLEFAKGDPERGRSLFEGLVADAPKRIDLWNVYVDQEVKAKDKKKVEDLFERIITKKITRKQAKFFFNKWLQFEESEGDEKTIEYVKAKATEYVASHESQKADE
# Results are given in words; binding and its absence hold for the method and conditions named. Binding seen in cells or lysates may run through a third protein. These calls come from enrichment with a bait or labelling near it, and not all partners need be listed. For some assays here: Where a sequence is shown, tags or fusion partners need not be part of it.
# T1: Noc4-FTpA (Saccharomyces cerevisiae (yeast)) (UniProt Q06512)
# T1 sequence: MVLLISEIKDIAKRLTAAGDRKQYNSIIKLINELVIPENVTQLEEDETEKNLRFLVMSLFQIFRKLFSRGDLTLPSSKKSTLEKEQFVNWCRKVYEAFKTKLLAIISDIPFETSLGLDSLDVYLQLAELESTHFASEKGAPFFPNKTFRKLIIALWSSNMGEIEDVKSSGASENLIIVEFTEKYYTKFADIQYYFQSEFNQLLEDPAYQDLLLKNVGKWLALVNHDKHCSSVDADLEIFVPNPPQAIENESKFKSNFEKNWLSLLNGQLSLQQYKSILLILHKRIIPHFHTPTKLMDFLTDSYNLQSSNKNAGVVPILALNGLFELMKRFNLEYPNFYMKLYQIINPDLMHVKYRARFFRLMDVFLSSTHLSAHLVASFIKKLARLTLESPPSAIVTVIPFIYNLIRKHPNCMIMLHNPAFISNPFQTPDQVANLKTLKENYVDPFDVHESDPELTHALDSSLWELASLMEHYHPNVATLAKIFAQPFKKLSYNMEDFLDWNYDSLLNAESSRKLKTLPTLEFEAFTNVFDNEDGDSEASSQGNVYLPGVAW
# T2: Utp23-FTpA (Saccharomyces cerevisiae (yeast)) (UniProt Q12339)
# T2 sequence: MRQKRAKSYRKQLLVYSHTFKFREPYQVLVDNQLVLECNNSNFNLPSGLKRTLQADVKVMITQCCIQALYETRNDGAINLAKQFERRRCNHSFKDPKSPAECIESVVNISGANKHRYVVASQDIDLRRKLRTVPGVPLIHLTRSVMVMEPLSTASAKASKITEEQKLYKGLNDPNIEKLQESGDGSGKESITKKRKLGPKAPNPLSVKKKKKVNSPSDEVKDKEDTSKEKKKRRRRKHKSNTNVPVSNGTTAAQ
# T3: Kri1-FTpA (Saccharomyces cerevisiae (yeast)) (UniProt P42846)
# T3 sequence: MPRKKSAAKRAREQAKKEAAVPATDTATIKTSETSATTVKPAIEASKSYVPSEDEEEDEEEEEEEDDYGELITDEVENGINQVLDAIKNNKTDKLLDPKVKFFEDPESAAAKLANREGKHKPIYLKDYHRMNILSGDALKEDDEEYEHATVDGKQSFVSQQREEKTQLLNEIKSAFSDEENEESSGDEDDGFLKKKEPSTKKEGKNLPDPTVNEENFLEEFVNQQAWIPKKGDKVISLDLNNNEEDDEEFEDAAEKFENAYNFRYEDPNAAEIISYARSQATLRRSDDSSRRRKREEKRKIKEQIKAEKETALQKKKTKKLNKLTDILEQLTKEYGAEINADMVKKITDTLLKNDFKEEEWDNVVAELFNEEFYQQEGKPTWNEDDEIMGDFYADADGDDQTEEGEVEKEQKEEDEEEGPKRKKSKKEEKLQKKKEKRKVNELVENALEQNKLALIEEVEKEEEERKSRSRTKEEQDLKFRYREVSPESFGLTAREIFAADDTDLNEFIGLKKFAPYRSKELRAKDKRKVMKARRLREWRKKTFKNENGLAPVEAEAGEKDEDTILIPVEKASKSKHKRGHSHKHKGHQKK
# T4: protA-TEV-tagged Utp23 (Saccharomyces cerevisiae (yeast)) (UniProt Q12339)
# T4 sequence: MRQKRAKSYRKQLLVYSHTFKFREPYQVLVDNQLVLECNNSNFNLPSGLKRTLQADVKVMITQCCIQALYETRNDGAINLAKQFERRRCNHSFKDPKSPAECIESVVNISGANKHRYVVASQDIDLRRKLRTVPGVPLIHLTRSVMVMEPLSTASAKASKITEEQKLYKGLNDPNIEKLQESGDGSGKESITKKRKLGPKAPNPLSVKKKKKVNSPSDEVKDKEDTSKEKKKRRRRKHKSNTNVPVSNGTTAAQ
# Assays:
# [1] = target: T1, Noc4-FTpA (Saccharomyces cerevisiae (yeast)); assay: affinity purification with mass spectrometry; tandem affinity purification of an FTpA-tagged bait from yeast lysate (IgG Sepharose, TEV elution, FLAG agarose, FLAG peptide elution; 60 mM Tris-HCl pH 8.0, 50 mM NaCl, 40 mM KCl, 2 mM MgCl2); cells: wild type, krr1∆C1, or galactose-induced KRR1 or krr1∆C3; SDS-PAGE and semiquantitative MS
# [2] = target: T2, Utp23-FTpA (Saccharomyces cerevisiae (yeast)); assay: as above
# [3] = target: Utp10-FTpA (Saccharomyces cerevisiae (yeast)) (UniProt P42945); assay: as above
# [4] = target: T3, Kri1-FTpA (Saccharomyces cerevisiae (yeast)); assay: as above
# [5] = target: Krr1 (wild type, second bait of the split-tag purification) (Saccharomyces cerevisiae (yeast)) (UniProt P25586); assay: affinity purification with mass spectrometry; split-tag affinity purification from yeast lysate: Utp23 as first bait (IgG Sepharose, TEV elution), wild-type or mutant Krr1 as second bait (FLAG agarose, FLAG peptide elution); SDS-PAGE and semiquantitative MS
# [6] = target: T4, protA-TEV-tagged Utp23 (Saccharomyces cerevisiae (yeast)); assay: as above
binding [1],binding [2],binding [3],binding [4],binding [5],binding [6],Molecule
binds,binds weakly,binds,binds weakly,,,Rrp5 (from UniProt Q05022 1-1729)
,,,,binds,binds,"Mrd1 (protein, UniProt Q06106 1-887) MSRIIVKGLPVYLTDDNLREHFTKRLRQKHSHQAVNGSGPDLITDVKILRDRNGESRRFGFIGYRNEEDAFDAVEYFNGSFINTSKIEVSMAKSFADPRVPQPMKEKRREALKRFREKEEKLLQEENRKKKKVDENKHSNIDDEIRKNKQLQEFMETMKPSSQVTSWEKVGIDKSIEDEKLKREEEDSSVQGNSLLAHALALKEENNKDEAPNLVIENESDDEYSALNRNRDEDQEDAGEEEKMISISNLKDTDIGLVNDDANSDEKENEKRRNLAQDEKVSDLDWFKQRRVRIKESEAETREKSSSYATEQNESLDTKKEEQPERAVPQKTDEELAIEKINQTGRLFLRNILYTSKEEDFRKLFSPFGELEEVHVALDTRTGQSKGFAYVLFKDSKNAVNAYVELDKQIFQGRLLHILPGEEKKSHRLDEFDLKNMPLKKQKELKRKAAASRQTFSWNSLYMNQDAVLGSVAAKLGLEKSQLIDAENSSSAVKQALAEAHVIGDVRKYFESKGVDLTKFSQLKSTNQRDDKVILVKNFPFGTTREELGEMFLPYGKLERLLMPPAGTIAIVQFRDTTSARAAFTKLSYKRFKDGIIYLERGPKDCFTKPAEADDLINNTSAKEEENPVEVKPSSNDLMEANKDVTEGSSNAHDEDVIDGPTVSIFIKNLNFSTTNQNLTDRFKVFTGFVVAQVKTKPDPKHQGKTLSMGFGFVEFRTKEQANAVIAAMDGTVIDGHKIQLKLSHRQASQSGNTKTKSNKKSGKIIVKNLPFEATRKDVFELFNSFGQLKSVRVPKKFDKSARGFAFVEFLLPKEAENAMDQLHGVHLLGRRLVMQYAEEDAVDAEEEIARMTKKVRKQVATNEMAALRNGGGRKKLDVDDEENEGF"
,,,,binds,binds,"Nop9 (protein, UniProt P47077 1-666) MGKTKTRGRRHQDKQRKDEFEPSSNSAKEHIQQEESTYNDEAEIKETQPQMFFGVLDREELEYFKQAESTLQLDAFEAPEEKFQFVTSIIEEAKGKELKLVTSQITSKLMERVILECDETQLKDIFQSFNGVFFGLSCHKYASHVLETLFVRSAALVERELLTPSFDNNEKEGPYVTMENMFLFMLNELKPHLKTMMNHQYASHVLRLLILILSSKTLPNSTKANSTLRSKKSKIARKMIDIKDNDDFNKVYQTPESFKSELRDIITTLYKGFTNGAESRSDISQSTITKFREYSVDKVASPVIQLIIQVEGIFDRDRSFWRLVFNTADEKDPKEESFLEYLLSDPVGSHFLENVIGSARLKYVERLYRLYMKDRIVKLAKRDTTGAFVVRALLEHLKEKDVKQILDAVVPELSMLLNSNMDFGTAIINASNKQGGYLRDDVIAQLIQKYYPEKSDAKNILESCLLLSASTLGNTRDDWPTAEERRRSVFLEQLIDYDDKFLNITIDSMLALPEERLIQMCYHGVFSHVVEHVLQTTRVDIIKRKMLLNILSKESVNLACNVYGSHIMDKLWEFTAKLTLYKERIARALVLETEKVKNSIYGRQVWKNWKLELYVRKMWDWKKLIKEQEFEIFPNSKPLQPKPEKHSRERNNSKEGSAFKKQKHYR"
